From PMC13648917
These are yes or no findings as the source states them, for the method shown. For some assays here: Binding seen in cells or lysates may run through a third protein. Some results given as binding are weak or reduced against the parent protein; the word gives no strength. For some assays here: Tags and fused reporters may be left off the sequences shown.

Experiments:
[1] = target: T1, Spir520‐GST (Drosophila) (UniProt Q9U1K1); assay: pull-down; purified recombinant proteins at equimolar concentrations in cold PBS, glutathione resin holding the GST-tagged Spir, 4°C 2.5 h, three washes with PBS; both purified
T1 sequence: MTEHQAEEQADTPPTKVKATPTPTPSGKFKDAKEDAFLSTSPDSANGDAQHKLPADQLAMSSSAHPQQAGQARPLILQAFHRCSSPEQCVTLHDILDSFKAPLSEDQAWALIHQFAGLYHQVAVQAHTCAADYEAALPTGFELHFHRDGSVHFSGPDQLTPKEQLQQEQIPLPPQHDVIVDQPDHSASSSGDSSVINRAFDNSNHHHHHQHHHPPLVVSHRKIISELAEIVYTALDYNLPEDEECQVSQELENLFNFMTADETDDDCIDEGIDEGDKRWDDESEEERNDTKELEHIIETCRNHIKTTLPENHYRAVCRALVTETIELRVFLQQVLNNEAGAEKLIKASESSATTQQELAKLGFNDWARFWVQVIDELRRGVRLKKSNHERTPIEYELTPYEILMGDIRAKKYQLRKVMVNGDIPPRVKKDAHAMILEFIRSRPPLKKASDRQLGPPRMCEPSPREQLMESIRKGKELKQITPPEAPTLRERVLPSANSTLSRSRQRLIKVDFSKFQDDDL

[2] = target: T2, Rab11‐3xHA (Drosophila) (UniProt O18335); assay: co-IP; ovary lysates with HA-tagged protein and with GFP-tagged protein mixed in equal volumes, magnetic HA‐beads, 4°C 2.5 h; 50 mM HEPES pH 7.4, 150 mM KCl, 1 mM EDTA, 1 mM MgCl2, 10% glycerol, 0.2% NP‐40; blot with GFP and HA‐tag antibodies
T2 sequence: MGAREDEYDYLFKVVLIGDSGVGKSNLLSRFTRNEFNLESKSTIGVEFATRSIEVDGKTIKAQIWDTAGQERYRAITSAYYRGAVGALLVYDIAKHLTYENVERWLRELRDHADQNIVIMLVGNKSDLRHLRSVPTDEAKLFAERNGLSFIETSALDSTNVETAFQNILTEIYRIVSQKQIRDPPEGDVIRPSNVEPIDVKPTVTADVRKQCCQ

binding [1]	binding [2]	Substance
binds	–	His‐MyoV‐GTD (from UniProt A1Z6Z8 1411-1800) (domain or fragment)
–	binds	MyoV‐GFP (from UniProt A1Z6Z8 1-1800)
